Laboratory results: paper PMC11459959, “Discovery of new acetamide derivatives of 5-indole-1,3,4-oxadiazol-2-thiol as inhibitors of HIV-1 Tat-mediated viral transcription” (Antimicrobial Agents and Chemotherapy, 2024)

Experiments:
[1] = system: Tat-mediated LTR transcription; assay: Dual-reporter assay, F-Luc (Tat-mediated LTR transcription) in bl-DTR cells; assay type: cell-based, HIV-1; conditions: Human immunodeficiency virus 1, 24 h, read-out: IC50 of F-Luc (Tat)
Experimental: Fig 1 (A) (Top panel) Schematic representation of the primary compound screening using a dual-reporter system. […] (B). […] (Top graphs) bl-DTR cells (1 × 10^4) were treated with twofold serial dilutions of each compound before doxycycline (Dox) addition (final concentration, 50 ng/mL). After 24 h of treatment, the activities of firefly luciferase (F-Luc, red line) and Renilla luciferase (R-Luc, blue line) were determined using the Dual-Glo Luciferase assay system. (Bottom graphs) TZM-bl cells were treated with each indicated compound and subsequently infected with the HIV-1NL4-3 strain at a multiplicity of infection (MOI) of 1. At 48 h after infection, the viral infectivity (purple line) and cell viability (green line) were determined using the Bright-Glo luciferase assay kit and the PrestoBlue Cell Viability Reagent, respectively. […] (C). […]
The Tzm-bl-derived dual Tat reporter; TZM-bl/Tat/Rluc (bl-DTR) cells were established from TZM-bl cells using two Dox-inducible lentiviral expression cassettes cloned with Flag-tagged Tat86 and the R-Luc gene, as described in our previous study ([11]). […] The infected blue-colored cells were counted under a microscope (100× magnification). The infectious virus titer was determined as a mean value of blue-colored cells count × dilution factor and used for determining the multiplicity of infection (MOI) in each infection experiment.

HIV-1NL4-3 [2] = assay: HIV-1 infectivity in TZM-bl cells (F-Luc); assay type: cell-based; conditions: Human immunodeficiency virus 1, TZM-bl, 48 h, TZM-bl cells infected with HIV-1NL4-3 at MOI 1, 48 h, mean ± SD
HIV-1NL4-3 [3] = assay: HIV-1 replication in PBMCs (p24 […]); assay type: cell-based; conditions: Human immunodeficiency virus 1, PBMC, 72 h, HIV-1NL4-3 MOI 0.1, 3 days, mean ± SD
Experimental: (§1) The p24 level from the cell supernatant was subsequently determined using a p24 […] kit (PerkinElmer). In parallel, the cell viability was determined without viral infection because of the viral cytopathic effect. […] In parallel, cell viability was determined. The data (A and B) are presented as the mean ± SD (n = 3). (C) PBMCs (4 × 10^5) infected with HIV-AD8 at an MOI of 0.1 were treated with 1.5 µM of the compounds or ARVs for 3 days. The levels of p24 and cell viability were subsequently determined. (D) J1.1 cells were cultured with the compounds ([…]) under 50 ng/mL phorbol myristate acetate (PMA) treatment for 2 days. The level of p24 was subsequently determined. (E) J-Lat 6.3 cells were treated with the compounds (1.5 µM) under 1 µg/mL of PMA for 2 days. The GFP-positive cell population was analyzed using flow cytometry. […]
(§2) The inhibitory effects of the compounds on viral replication were determined with some minor modifications, as previously described ([12], [62]). […] At 72 h after infection, the inhibitory effect of the compounds on viral replication was determined by measuring the p24 amount, an HIV capsid protein, using an HIV-1 p24 […] kit (PerkinElmer, Waltham, MA, USA). Cell viability was determined as described above. The inhibitory effects on provirus reversing in J1.1 and J-Lat 6.3 cells were determined as previously described ([12], [41], [63]) with some minor modifications. […]

HIV-1NL4-3 [4] = assay: HIV-1 replication in A3.01 cells (p24 […]); assay type: cell-based; conditions: Human immunodeficiency virus 1, 72 h, HIV-1NL4-3 MOI 0.1, 3 days, mean ± SD
Experimental: as §1, §2

## CC[C@H](CO)Nc1nc(NCc2ccccc2)c2ncn(C(C)C)c2n1 [seliciclib, reference compound]
[1]
  IC50: 3.6 ± 0.1 µM
HIV-1NL4-3 [2]
  EC50: 3.24 ± 0.07 µM
HIV-1NL4-3 [3]
  EC50: 3.93 ± 0.3 µM
HIV-1NL4-3 [4]
  EC50: 3.59 ± 0.69 µM
